The text below walks through data of PubChem BioAssay AID1794844 (National Center for Advancing Translational Sciences (NCATS), 2023).

By UniProt entry, the sequences of proteins in these tests, tags left out. Where a name states a change or a piece, a line headed by the entry shows the natural chain unless it says otherwise.
UniProt C7C422: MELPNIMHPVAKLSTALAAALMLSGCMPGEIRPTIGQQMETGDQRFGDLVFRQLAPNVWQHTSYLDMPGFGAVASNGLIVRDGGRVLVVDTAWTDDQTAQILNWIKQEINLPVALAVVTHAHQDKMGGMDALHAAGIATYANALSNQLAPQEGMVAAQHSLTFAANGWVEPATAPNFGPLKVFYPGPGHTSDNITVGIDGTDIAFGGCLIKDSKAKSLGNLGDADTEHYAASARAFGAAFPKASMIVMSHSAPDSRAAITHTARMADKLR

Hit rate of the full screen: of about 2,800 compounds, fewer than 10 were called active. Roughly 7% stayed inconclusive and do not appear here. The call rests on the fitted dose curve; in most records, active means well fitted inhibition curve with a large enough effect; inconclusive means small, poorly fitted or top-dose-only effect; inactive means no such curve, though single readings can be large or run the other way. The list shows a part of the results.

For this assay, the target named is Metallo-beta-lactamase type 2 (Klebsiella pneumoniae) (UniProt C7C422). The experiment in a line: qHTS to identify inhibitors of the New Delhi Metallo-beta-lactamase (NDM): Nitrocefin screen against the machine-based learning selections. Further: % of control where 0% means no effect. The conditions noted are these: NDM-1 enzyme, nitrocefin hydrolysis, absorbance 485 nm; activity, negative = inhibition: at the top concentration. The procedure, abridged: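 Hydrolysis by 2 nM NDM-1 was followed by absorbance after >30 min compound preincubation in HEPES pH 7.0 buffer with 1 uM Zn2SO4. For nitrocefin (16.7 uM, 15 min, 485 nm) and meropenem (50 uM, 30 min, 300 nm), each substrate ran on separate plates.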
Take `Cc1cc(C(=O)N[C@H]2[C@H](O)[C@H](O)C[C@@H]2c2cccnc2)no1`: the “activity, negative = inhibition” value was inactive: 0.0321% [at 57.5 µM].
Take `Cc1cc(-c2cc3c(cn2)CN(Cc2ccccc2O)CCN3)ccn1`: the “activity, negative = inhibition” value is inactive: 8.17% [at 57.5 µM].
Consider `CSc1ccc(-c2ccc3c(c2)C(=O)N2CCN(C(=O)CCC(=O)O)C[C@H]2C(=O)N3)cc1`, for which the “activity, negative = inhibition” value was inactive: -6.01%.
In the case of `NC(=O)c1ccc(NC(=O)C[C@H]2NC(=O)c3ccccc3NC2=O)cc1`, the “activity, negative = inhibition” value is inactive: 8.29%.
Take `CN1CCCC2(C1)CN(Cc1cccnc1)c1ccc(C(=O)Nc3ccccc3)cc12` (stereo not drawn): the “activity, negative = inhibition” value was inactive: 2.06% [at 57.5 µM].
As to `Cc1noc(C)c1CCC(=O)NC(c1cnn(C)c1)C1CC(O)C1` (stereo not drawn), the “activity, negative = inhibition” value is inactive: 12.5%.
The value for `CCCN1C(=O)Cc2ccccc2C1C(=O)NCc1cccc(F)c1` (stereo not drawn) was inactive: -2.47%; that for `CSc1cccc(NC(=O)N[C@H]2CCN3C(=O)[C@H](CC4CCCCC4)NC(=O)[C@@H]3C2)c1` was inactive: 2.54%; that for `Cc1cccc(OCCc2noc(C3CCCNC3)n2)c1` (stereo not drawn) was inactive: -1.59%.
For `COc1ccc(S(=O)(=O)N2CCc3c(C(=O)NC4CC4)cccc32)cc1`, the “activity, negative = inhibition” value was inactive: -2%.
Regarding `CNC(=O)C1CCN(C(=O)N2CC3CC(C2)[C@H]2CCCC(=O)N2C3)CC1` (stereo partly drawn), the “activity, negative = inhibition” value was inactive: 3.61%.
As for `O=C(NC[C@H]1COCc2nc3cc(F)ccc3n21)C1CC1`, the “activity, negative = inhibition” value was inactive: 5.46% [at 76.7 µM].
Take `Cc1cccc(CC(=O)N2CCC[C@H]2c2nc(-c3ccccc3)no2)c1`: the “activity, negative = inhibition” value is inactive: 1.08%.
For `CS(=O)(=O)N1CCC(C2CCN(C(=O)Cc3cccc(F)c3)C2)CC1` (stereo not drawn) the value was inactive: 1.68%.
On to `CC(NC(=O)c1ccc(C(C)(C)C)cc1)C(=O)N1CCN(c2ccccn2)CC1` (stereo not drawn), for which the “activity, negative = inhibition” value is inactive: -0.127%.
As to `O=C(O)c1ccc(CN2CC[C@@H](c3ccc4c(c3)OCO4)[C@H](O)C2)cc1`, the “activity, negative = inhibition” value was inactive: -3.59%.
On to `O=C(C[C@@H]1CCNC[C@@H]1Cc1cc(-c2ccc(F)cc2)on1)NCc1ccccc1`, for which the “activity, negative = inhibition” value was inactive: 1.59% [at 57.5 µM].
Consider `CN(C)CCOCC1(C)COc2ccc(C(=O)Nc3ccc4[nH]ccc4c3)cc2N1` (stereo not drawn), for which the “activity, negative = inhibition” value is inactive: 4.78% [at 57.5 µM].
Consider `Fc1ccc(-c2cc(CC3(NC4CCCCC4)COC3)no2)cc1`, for which the “activity, negative = inhibition” value is inactive: 0.353% [at 57.5 µM].
On to `Cc1noc2c(-c3cccc(CO)c3)cc(-c3cccs3)nc12`, for which the “activity, negative = inhibition” value was inactive: -8.66% [at 57.5 µM].
In the case of `COCC(=O)NC[C@@H]1C=C(C)[C@H](CC(=O)Nc2ccccn2)C[C@H]1C(C)C`, the “activity, negative = inhibition” value is inactive: 1.86% [at 57.5 µM].
`CNC(=O)[C@@H](C1CC1)N1CCC[C@H]1C(=O)NC1CC1`: the “activity, negative = inhibition” value was inactive: 7.5% [at 76.7 µM].
In the case of `OC1(c2csc(CN3CCN(c4ccccn4)CC3)n2)CCN(CC2CCCCC2)CC1`, the “activity, negative = inhibition” value was inactive: 3.3%.
For `COCCNS(=O)(=O)c1cc(C(=O)O)cc(-c2cccc(C(C)N(C)C)c2)c1` (stereo not drawn) the value was inactive: 1.2%; for `C#CCNC(=O)C[C@@H]1C[C@@H](C(C)C)[C@H](CNS(C)(=O)=O)C=C1C`, inactive: -7.21% [at 57.5 µM].
As for `O=C(C[C@@H]1CCNC[C@@H]1Cc1cc(CN2CCOCC2)on1)N1CCC(Cc2ccccc2)CC1`, the “activity, negative = inhibition” value was inactive: -9.78%.
`CC1=C[C@@H](CNC(=O)C2CCCCC2)[C@H](C(C)C)C[C@H]1CC(=O)N1CCN(c2ccccn2)CC1`: the “activity, negative = inhibition” value was inactive: -2.19%.
`CC(C)CCNC(=O)c1cccnc1N1CC2CC(C1)[C@H]1CCCC(=O)N1C2` (stereo partly drawn): the “activity, negative = inhibition” value was inactive: 4.33%.
On to `COCCn1nc2n(c1=O)CCN(S(=O)(=O)c1ccc(Cl)s1)CC2`, for which the “activity, negative = inhibition” value is inactive: -6.63%.
As for `O[C@H]1[C@H](NCC2CCCCC2)[C@H]2CO[C@H](O2)[C@@H]1N1CCC(Cc2ccccc2)CC1`, the “activity, negative = inhibition” value was inactive: 5.79% [at 57.5 µM].
The value for `O=C(NCCc1csc(-c2cccnc2)n1)C1NCCc2[nH]cnc21` (stereo not drawn) was inactive: 16.4%; that for `O=C(Nc1cccc2ccccc12)O[C@@H]1CO[C@H]2[C@@H]1OC[C@@H]2n1nnnc1-c1ccc(-c2ccccc2)cc1` was inactive: -1.39%; that for `CC1=C[C@@H](CNC(=O)CCCC(=O)O)[C@H](C(C)C)C[C@H]1Cc1nc2ccc(F)cc2[nH]1` was inactive: 0.278% [at 57.5 µM].
Regarding `O=C(NC1CCN(c2cc(-c3ccc(Cl)cc3)[nH]n2)C1)c1ccncc1` (stereo not drawn), the “activity, negative = inhibition” value was inactive: -1.2%.
Take `CN(C)Cc1cn([C@H]2CO[C@H]3[C@@H]2OC[C@H]3OC(=O)Nc2ccc(C(C)(C)C)cc2)nn1`: the “activity, negative = inhibition” value is inactive: -1.08% [at 57.5 µM].
For `COC(=O)[C@@H]1Cc2ncn(Cc3ccc(Cl)cc3)c2CN1Cc1ccc(C(=O)O)cc1`, the “activity, negative = inhibition” value is inactive: -5.37%.
`CCNC(=O)N[C@H]1CO[C@H]2[C@@H]1OC[C@@H]2Nc1nccc(-c2ccc(OC)cc2)n1`: the “activity, negative = inhibition” value was inactive: 2.24% [at 57.5 µM].
In the case of `CCc1noc(-c2ccn3c(CNC(=O)c4ccc(OC)c(F)c4)nnc3c2)n1`, the “activity, negative = inhibition” value was inactive: 10.2%.
For `O=C(c1ccco1)N1CCN(Cc2ccc3c(c2)CCO3)CC(O)C1` (stereo not drawn) the value was inactive: -3.94%; for `CCn1cnnc1CCNC(=O)c1cc(-c2ccc(C)cc2)nc2ccccc12`, inactive: -6.46%; for `CC(C)(C)C(=O)N1CCC2(C1)C(=O)N(CCc1ccccc1)c1ccccc12` (stereo not drawn), inactive: -1.6%.
The value for `CNC(=O)C1(N2CCC[C@H]2C(=O)NC(C)C)COC1` was inactive: -16.1% [at 76.7 µM]; that for `O=C(O)c1ccc([S+](=O)([O-])N2CC(COc3ccccc3)C3(CN(c4ccccc4)C3)C2)cc1` (stereo not drawn) was inactive: -4.68%; that for `c1ccc(-c2cn3c(n2)CO[C@@H](CNCc2ccc4ccccc4n2)C3)cc1` was inactive: 6.93% [at 57.5 µM].
For `Cc1ccc(NC(=O)N2CCCC(c3nccn3Cc3ccncc3)C2)cc1C` (stereo not drawn), the “activity, negative = inhibition” value was inactive: 6.03%.
The value for `COC[C@]1(O)CCN(C(=O)CSCc2ccccc2C)CC1(C)C` was inactive: -0.216%; that for `CN1CCCC2(C1)CN(Cc1cccnc1)c1ccc(C(=O)Nc3ccc(F)cc3)cc12` (stereo not drawn) was inactive: 3.65% [at 57.5 µM].
In the case of `O=C(c1cccc2cnccc12)N1CCC2(CC1)Nc1ccccc1NC2=O`, the “activity, negative = inhibition” value is inactive: 2.13%.
